The experiment addresses myc-tagged RAD51 (human) (UniProt Q06609). The experiment can be described thus: co-IP; lysate of MDA-MB-231 and MDA-MB-453 cells transfected with pcDNA3.1_myc_RAD51, treated with 0.1 µM IVA and/or 5 µM OLA for 48 h; anti-myc or anti-mouse IgG at 4 °C overnight, Dynabeads; binding buffer Tris-Cl pH 7.4, 100 mM NaCl, 0.5% NP-40, 0.5% Triton X-100, 10% glycerol; western blot. For orientation: In western blotting, separated proteins are transferred to a membrane and probed.

Amino acid sequences for entries named in this document (tags omitted).
UniProt Q06609: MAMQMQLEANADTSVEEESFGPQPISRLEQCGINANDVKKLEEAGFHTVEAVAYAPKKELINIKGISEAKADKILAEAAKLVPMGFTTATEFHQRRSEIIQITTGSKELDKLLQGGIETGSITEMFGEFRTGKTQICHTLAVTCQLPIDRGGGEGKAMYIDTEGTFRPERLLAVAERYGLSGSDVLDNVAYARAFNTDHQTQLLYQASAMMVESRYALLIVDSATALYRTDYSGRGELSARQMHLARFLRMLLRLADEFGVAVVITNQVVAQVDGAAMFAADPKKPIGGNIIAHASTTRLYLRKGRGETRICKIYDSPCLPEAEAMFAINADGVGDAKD

Results are given in words; binding and its absence hold for the method and conditions named. Binding seen in cells or lysates may run through a third protein. Some binding calls cover weakened binding; strength is not graded here.

B1: FBXO24 (protein, UniProt O75426 1-580)
chain: MGEKAVPLLRRRRVKRSCPSCGSELGVEEKRGKGNPISIQLFPPELVEHIISFLPVRDLVALGQTCRYFHEVCDGEGVWRRICRRLSPRLQDQGSGVRPWKRAAILNYTKGLYFQAFGGRRRCLSKSVAPLLAHGYRRFLPTKDHVFILDYVGTLFFLKNALVSTLGQMQWKRACRYVVLCRGAKDFASDPRCDTVYRKYLYVLATREPQEVVGTTSSRACDCVEVYLQSSGQRVFKMTFHHSMTFKQIVLVGQETQRALLLLTEEGKIYSLVVNETQLDQPRSYTVQLALRKVSHYLPHLRVACMTSNQSSTLYVTDQGGVYFEVHTPGVYRDLFGTLQAFDPLDQQMPLALSLPAKILFCALGYNHLGLVDEFGRIFMQGNNRYGQLGTGDKMDRGEPTQVCYLQRPITLWCGLNHSLVLSQSSEFSKELLGCGCGAGGRLPGWPKGSASFVKLQVKVPLCACALCATRECLYILSSHDIEQHAPYRHLPASRVVGTPEPSLGARAPQDPGGMAQACEEYLSQIHSCQTLQDRTEKMKEIVGWMPLMAAQKDFFWEALDMLQRAEGGGGGVGPPAPET
B1: the binding entry is given as “binds”.

Source of the values: publication PMC12323259.
